Measurements taken from the supplement of paper PMC10689618.
Counter-ions that a name gives are not always drawn. Some of the results follow. Single values are uncertain, as repeats are few or missing.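 Labelled rat cortical synaptosomes were engulfed by primary human fetal astrocytes. Engulfment equaled a red/green ratio, corrected for calcein live-cell signal and normalized to the plate median. Compounds were toxic when calcein dropped over 30%, and reduced phagocytosis when below 70% of the median above 5 µM.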

Test system: Human fetal astrocytes
Test: loss of total cells relative to no-compound high-control median (toxicity); higher = more toxic (fewer cells)
Conditions: 22.22 µM; 24 h

Row | SMILES | loss of total cells [%]
1 | COc1cc(O)cc(OC)c1OC | 15.9
2 | Nc1ccc(C(=O)O)c(O)c1 | -3.4
3 | Cc1cc(-c2ccccc2)nnc1NCCN1CCOCC1 | 4.5
4 | C=C1c2c(Cl)ccc(O)c2C(O)=C2C(=O)[C@]3(O)C(O)=C(C(N)=O)C(=O)[C@@H](N(C)C)[C@@H]3[C@@H](O)[C@H]12.O=C(O)c1cc(S(=O)(=O)O)ccc1O | 9.1
5 | CCCCCCCCCc1ccc(OCCOCCOCCOCCOCCOCCOCCOCCOCCO)cc1 | 17.4
6 | O=C1CCc2ccc(OCCCCN3CCN(c4cccc(Cl)c4Cl)CC3)cc2N1 | 14.4
7 | NC(=O)c1cc[n+](CC2=C(C(=O)O)N3C(=O)[C@@H](NC(=O)[C@@H](c4ccccc4)S(=O)(=O)[O-])[C@H]3SC2)cc1 | 12.1
8 | CC(C)=CC1C(C(=O)O)C1(C)C (centres undefined) | 13.3
9 | CCC(C)C(=O)OC1[C@@H]2CC3=C4CC(=O)O[C@@H](c5ccoc5)[C@]4(C)CCC3[C@@](C)(C2=O)[C@@H](CC(=O)OC)C1(C)C (some centres undefined) | 6.8
10 | C/C=C1\[C@H]2C=C(C)C[C@]1(N)c1ccc(=O)[nH]c1C2 | -0.7
11 | Nc1cc(C(Cl)=C(Cl)Cl)c(S(N)(=O)=O)cc1S(N)(=O)=O | 4.7
12 | CC(C)(C(=O)O)c1ccc(C(O)CCCN2CCC(C(O)(c3ccccc3)c3ccccc3)CC2)cc1 (centres undefined) [Fexofenadine hydrochloride] | 9.7
13 | CO[C@@]1(NC(=O)C(C(=O)O)c2ccc(O)cc2)C(=O)N2C(C(=O)O)=C(CSc3nnnn3C)CO[C@@H]21 (some centres undefined) | 4.5
14 | Cc1ncc(CO)c(CO)c1O | 10.3
15 | CCOc1ccc(NC(C)=O)cc1 | 28.9
16 | COc1cc(C(=O)N2CCOCC2)cc(OC)c1OC | 0.3
17 | CO[C@H]1C[C@H](O[C@H]2[C@H](C)[C@@H](O[C@@H]3O[C@H](C)C[C@H](N(C)C)[C@H]3O)[C@@H](C)C[C@@]3(CO3)C(=O)[C@H](C)[C@@H](O)[C@@H](C)[C@@H](C)OC(=O)[C@@H]2C)O[C@@H](C)[C@@H]1O | -19.1
18 | COC(=O)[C@H]1[C@H]2C[C@H]3c4[nH]c5cc(OC)ccc5c4CCN3C[C@H]2C[C@@H](OC(=O)c2cc(OC)c(OC)c(OC)c2)[C@@H]1OC | 11.4
19 | CCOc1ccc(C(=O)c2ccc(OC)c(O)c2O)cc1 | 7.8
20 | Cc1ncc(C[n+]2csc(CCO)c2C)c(N)n1 | -0.9

Row | SMILES | loss of total cells [%]
21 | CCC(=O)OCC(=O)[C@@]1(OC(=O)CC)[C@@H](C)C[C@H]2[C@@H]3CCC4=CC(=O)C=C[C@]4(C)[C@@]3(F)[C@@H](O)C[C@@]21C | 7.8
22 | O=C1C(CC[S+]([O-])c2ccccc2)C(=O)N(c2ccccc2)N1c1ccccc1 (centres undefined) | 34.3
23 | CCCN(CCC)S(=O)(=O)c1ccc(C(=O)O)cc1 | -6.4
24 | CC1(C)S[C@@H]2[C@H](N3C(=O)[C@@H](c4ccccc4)NC3(C)C)C(=O)N2[C@H]1C(=O)O | 2.7
25 | COc1c(O)cc(O)cc1O | 19.6
26 | Cc1c(N(C)C)c(=O)n(-c2ccccc2)n1C | 7.6
27 | C[N+](C)(C)CCOP(=O)(O)OP(=O)([O-])OC[C@H]1O[C@@H](n2ccc(N)nc2=O)[C@H](O)[C@@H]1O | -0.3
28 | COC(=O)C[C@H]1C(C)(C)[C@@H](OC(C)=O)[C@@H]2CC3C4CC(=O)O[C@@H](c5ccoc5)[C@]4(C)CCC3[C@@]1(C)C2=O (some centres undefined) | -17.4
29 | CCOc1ccc2ccccc2c1C(=O)N[C@@H]1C(=O)N2[C@@H]1SC(C)(C)[C@@H]2C(=O)O | 12.5
30 | CN1C(=O)OC(C)(C)C1=O | 3.4
31 | Cn1c([N+](=O)[O-])cnc1COC(N)=O | 5.7
32 | OC(CCN1CCCCC1)(c1ccccc1)C1CC2C=CC1C2 (centres undefined) | 9
33 | COc1c(-c2coc3cc4c(cc3c2=O)CC(O)C(C)(C)O4)ccc2c1C=CC(C)(C)O2 (centres undefined) | 40.4
34 | NCCOB(c1ccccc1)c1ccccc1 | -11.1
35 | CC1=CCCC(C)=CCC(C)(C)C=CC1 [HUMULENE (alpha)] | 10.4
36 | C=CC(C1=CC(=O)C(OC)=CC1=O)c1ccc(O)cc1 (centres undefined) | 35.2
37 | CCC[C@@H]1C[C@@H](C(=O)N[C@@H]([C@H]2O[C@H](SC)[C@H](O)[C@@H](O)[C@H]2O)[C@@H](C)O)N(C)C1 | -26.4
38 | CCOC(=O)c1c(C)cc(O)cc1O | 0.4
39 | Nc1ccccc1C(=O)CC(N)C(=O)O (centres undefined) | 3.7

A different layout for two compounds above.

| Row | SMILES | loss of total cells [%] |
| --- | --- | --- |
| 27 | C[N+](C)(C)CCOP(=O)(O)OP(=O)([O-])OC[C@H]1O[C@@H](n2ccc(N)nc2=O)[C@H](O)[C@@H]1O | -0.3 |
| 28 | COC(=O)C[C@H]1C(C)(C)[C@@H](OC(C)=O)[C@@H]2CC3C4CC(=O)O[C@@H](c5ccoc5)[C@]4(C)CCC3[C@@]1(C)C2=O (some centres undefined) | -17.4 |
